Assay results taken from PMC9112550, “Optimization of the antimicrobial peptide Bac7 by deep mutational scanning” (BMC Biology, 2022).

System: E. coli TOP10
Experiment: Deep mutational scanning, epPCR (randomly mutagenized) Bac7_1-23 library, intracellular self-screening with NGS
Format: cell-based
Conditions: epPCR library, 601,551 variants; rank 1 = most active; qualitative measure

## RKLRPRPPRLPRPRPRPLPFLRP [epPCR library peptide ID 94428]
  Rank by antimicrobial activity: 2
